Results deposited as PubChem BioAssay AID602196 (INSERM, 2012).
Here is one part, drawn at random, of about 23,000 deposited reagents. Over the whole deposit, 455 (2%) were called active. 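Active includes both protection and sensitisation; some change values fall well beyond the stated -50 to +50 range.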 Unmarked entries are inactive. Reagent sequences are not shown. Not given: the amount of reagent.

Screen: 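Modifiers of cisplatin sensitivity in A549 cells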
Cells: human A549 lung cancer cells
Reagents: siRNA pair against human genes
Duration: 48 h transfection before cisplatin; time from cisplatin to read-out not stated
Conditions: cisplatin at a dose killing half of control-siRNA cells; exact dose and duration not given
Measured: 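Shift in cisplatin death relative to control siRNA, from -50 (all cells die) to +50 (no cells die); siRNAs harmful on their own scored 0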
Direction: two-siRNA summed score (-2 to +2): higher = both siRNAs protect from cisplatin killing; -2 means both sensitise; mean protection from cisplatin (shift in death) and protection from cisplatin (shift in death), siRNA C and protection from cisplatin (shift in death), siRNA D: higher = protection from cisplatin killing
Rule for the call: 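Each siRNA scores 0 if harmful alone by LDH or WST-1, otherwise +1 if it reduces and -1 if it increases cisplatin killing; a gene is active when both siRNAs agree (sum +2 or -2)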
Meaning of the calls: active = both siRNAs shift cisplatin killing the same way; inactive = no consistent shift, or siRNA harmful alone

no.	target gene	two-siRNA summed score (-2 to +2)	mean protection from cisplatin (shift in death) (%)	protection from cisplatin (shift in death), siRNA C (%)	protection from cisplatin (shift in death), siRNA D (%)
1	LOC128629	0	10.8	9.8	11.8
2	GBP1	0	1.6	0.2	3
3	ZFP41	0	8.6	3.2	14
4	LINC01085	0	-0.8	-2.1	0.4
5	TP53I13	0	5.7	10.9	0.4
6	SMIM11	0	3.1	2.7	3.6
7	LOC391598	1	15.3	14.7	15.8
8	FLJ36760	0	5.2	-0.5	11
9	RBMS2	-1	-16	-31.6	-0.3
10	BRAF	0	6	12.4	-0.4
11	HPF1	0	-7.1	-3.1	-11.2
12	ALG10	0	4.9	5	4.8
13	KIAA1337	-1	-2	13.9	-18
14	LOC441065	0	2.5	-5.6	10.6
15	TAF9B	0	8.9	11.2	6.7
16	MYO1E	0	9.3	10	8.7
17	RHPN1	0	-0.2	-2.4	2
18	MSH6	2 (active)	22.7	18.6	26.7
19	USE1	0	5.3	11.7	-1.1
20	LOC388297	1	28.8	16.2	41.4
21	HOXA4	0	7.3	11.5	3
22	SLC37A1	0	5	17.3	-7.4
23	DNM1DN11-7	2 (active)	15.9	17	14.8
24	LOC400937	0	15	21	9.1
25	BDH1	0	8	17.9	-1.8
26	LOC442216	0	-0.9	1	-2.8
27	HTR3A	0	6.4	1.1	11.7
28	PGBD3	0	3.1	7.6	-1.4
29	ZNF319	0	-7.9	-8.8	-6.9
30	TRPT1	0	-2.7	-7.3	1.9
31	FAM161B	0	-1	-3.6	1.6
32	FLJ35171	0	1.4	-6.5	9.2
33	VPS37B	0	-2.8	-15.3	9.7
34	HACD4	0	8.8	12.5	5
35	NBPF4	0	0.8	-0.3	2
36	OR5H6	0	6.5	5.3	7.6
37	ARL5B	0	6.9	13.8	0
38	ROCK1	1	12.2	11.2	13.2
39	SCGB1D1	0	5.4	-1.4	12.1
